Measurements from the supplement of paper PMC3334620.
In all, about 33,000 sequences were measured (“E-score (-0.5 to 0.5)”: median about -0.0059, highest 2% from about 0.26 on). The list shows a part of the results.

What follows are sequences tested against T1, Cin5 (UniProt P40917) (assay: PBM E-score (8-mer binding enrichment) (E-score (-0.5 to 0.5)); higher = stronger / more preferred TF binding). Details: protein concentration: 100 nM; construct: GST-full length.
T1 sequence: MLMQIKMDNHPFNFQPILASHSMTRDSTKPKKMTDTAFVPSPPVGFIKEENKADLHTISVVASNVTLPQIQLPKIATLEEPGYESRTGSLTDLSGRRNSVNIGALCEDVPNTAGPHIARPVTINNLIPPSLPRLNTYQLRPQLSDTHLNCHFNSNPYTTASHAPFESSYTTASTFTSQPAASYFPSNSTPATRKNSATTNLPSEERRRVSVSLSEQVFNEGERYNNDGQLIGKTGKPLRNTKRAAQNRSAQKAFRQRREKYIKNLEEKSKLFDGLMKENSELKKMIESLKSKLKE
How it was run: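 Bound GST-tagged yeast transcription factors, applied at about 100-200 nM to double-stranded universal all-10-mer Agilent arrays, were detected with fluorescent anti-GST. Scans were normalised with masliner. A modified Wilcoxon-Mann-Whitney statistic, the E-score, was assigned to each ungapped eight-base word pooled with its reverse complement by the Universal PBM Analysis Suite.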
With ACCCTGAC the “PBM E-score” value was -0.0537. For GGATCTGA, the “PBM E-score” value was -0.0967. With CCTTAGGC the “PBM E-score” value was -0.335. AGTGTGCG was tested, and the “PBM E-score” value was -0.0425. For AGTATCTA, the “PBM E-score” value was 0.242. With GTTCACTA the “PBM E-score” value was -0.0359. With CAATTGCG the “PBM E-score” value was 0.00989. With CCCGTCGG the “PBM E-score” value was -0.122. In the case of AATGTTCC, the “PBM E-score” value is reported as 0.033. For AGGTCATC, the “PBM E-score” value was 0.101. For GCCCCAAC, the “PBM E-score” value was 0.228. For AGTCCGTA, the “PBM E-score” value was -0.126. For GAAGAGCC, the “PBM E-score” value was -0.147. With CCCCTATC the “PBM E-score” value was -0.111. ACCGCACG was tested, and the “PBM E-score” value was -0.141. ACTCGCAC was tested, and the “PBM E-score” value was -0.0154. ATATAGTG was tested, and the “PBM E-score” value was 0.235. With ACATAGCG the “PBM E-score” value was -0.0772. For CTTTGCAC, the “PBM E-score” value was -0.00532. With CAGGAGAC the “PBM E-score” value was -0.0701. GCATCCTA was tested, and the “PBM E-score” value was -0.0606. For ACAGCCTA, the “PBM E-score” value was 0.0697. ATCAACTG was tested, and the “PBM E-score” value was 0.128. AAGAGGTC was tested, and the “PBM E-score” value was 0.00337. With GCCGTTAA the “PBM E-score” value was -0.0272. ATCCCAGG was tested, and the “PBM E-score” value was -0.174. CCAGTTAC was tested, and the “PBM E-score” value was -0.186. With TGGCAAAA the “PBM E-score” value was 0.123. For CCTAAAAA, the “PBM E-score” value was 0.0181. For ACCAGACT, the “PBM E-score” value was -0.096. For ACAATTAT, the “PBM E-score” value was 0.205. In the case of ATTTGTGG, the “PBM E-score” value is reported as 0.102. For ACGAAGTG, the “PBM E-score” value was 0.103. With ATAAGCCG the “PBM E-score” value was 0.167. In the case of CTTAAATC, the “PBM E-score” value is reported as 0.0581. In the case of TCAAGTAA, the “PBM E-score” value is reported as 0.14. With GCGTTCAA the “PBM E-score” value was -0.0868. With CTCGTTCA the “PBM E-score” value was -0.1. With GAAGCTCA the “PBM E-score” value was 0.014. In the case of CGCCTCCC, the “PBM E-score” value is reported as -0.338. With AGGCAGCC the “PBM E-score” value was -0.0396. In the case of AAAACGGG, the “PBM E-score” value is reported as 0.146. In the case of AATTGGGG, the “PBM E-score” value is reported as 0.0653. For GCTCAGAC, the “PBM E-score” value was -0.026. AACCCGTT was tested, and the “PBM E-score” value was -0.103. With CACCCAGC the “PBM E-score” value was -0.16. For ACTCGAGT, the “PBM E-score” value was 0.0891. AGAATGAA was tested, and the “PBM E-score” value was 0.185. With TCGGCTAA the “PBM E-score” value was 0.0227. AGACGGTA was tested, and the “PBM E-score” value was 0.0472. For TAGTTGGA, the “PBM E-score” value was -0.0115. In the case of CCACCGAC, the “PBM E-score” value is reported as -0.0661. In the case of AAAGAGAT, the “PBM E-score” value is reported as 0.0293. For TACAGATA, the “PBM E-score” value was 0.103. For AATCCTGC, the “PBM E-score” value was 0.0423. For ACAACGGT, the “PBM E-score” value was -0.135. For ACACGGTA, the “PBM E-score” value was -0.0147. For AAACGATG, the “PBM E-score” value was 0.0533. With TAGCTGCA the “PBM E-score” value was -0.208. For ATATGGGC, the “PBM E-score” value was 0.157. With TACACCGA the “PBM E-score” value was 0.0105. For ATATGCCA, the “PBM E-score” value was 0.225. In the case of AACCCGGT, the “PBM E-score” value is reported as -0.0176. GAAAAGGC was tested, and the “PBM E-score” value was -0.0591. With AACACATA the “PBM E-score” value was 0.127. For GTGCCTGA, the “PBM E-score” value was -0.215. For TCAACAAA, the “PBM E-score” value was 0.134. With ACGCGCAC the “PBM E-score” value was 0.0077. In the case of GAAGAGCA, the “PBM E-score” value is reported as -0.189. For CCACGCAA, the “PBM E-score” value was -0.107. In the case of CAAGAGCA, the “PBM E-score” value is reported as -0.0892. ATCCACCA was tested, and the “PBM E-score” value was 0.0805. In the case of CTTGCTTA, the “PBM E-score” value is reported as 0.229. In the case of CACGACTC, the “PBM E-score” value is reported as -0.144. With GAACAACC the “PBM E-score” value was 0.0755. With CGGCACCG the “PBM E-score” value was 0.00123. In the case of AATGCCGC, the “PBM E-score” value is reported as 0.13. With ATTGTAAG the “PBM E-score” value was 0.0427. For CAATGCTC, the “PBM E-score” value was 0.00285. With CAAACTTG the “PBM E-score” value was 0.0884. In the case of CTATGAGC, the “PBM E-score” value is reported as -0.183. For CATAGTAG, the “PBM E-score” value was 0.228. AAGTCCCC was tested, and the “PBM E-score” value was -0.197. In the case of GAGGGTGA, the “PBM E-score” value is reported as -0.0364. With AACCCGGG the “PBM E-score” value was -0.0485. AAGTACGG was tested, and the “PBM E-score” value was 0.0604. With TAGCTAGA the “PBM E-score” value was 0.0511. For ATGAGGCA, the “PBM E-score” value was -0.0643. For GACGTTGC, the “PBM E-score” value was 0.0386. For ATATGCGC, the “PBM E-score” value was 0.0712. ATATCATA was tested, and the “PBM E-score” value was 0.288. With AGGTACCC the “PBM E-score” value was -0.287. With CATCCAAC the “PBM E-score” value was 0.109. CTTATAGC was tested, and the “PBM E-score” value was -0.0169. GCAGTCGC was tested, and the “PBM E-score” value was -0.165. For ATAGGGGA, the “PBM E-score” value was 0.019. With GGCCGTGA the “PBM E-score” value was 0.0348. With AGTTTGAG the “PBM E-score” value was 0.135. AGTATGAA was tested, and the “PBM E-score” value was 0.211. AGACTGCC was tested, and the “PBM E-score” value was -0.0602. With CACCACCG the “PBM E-score” value was -0.253. ACTAAGCT was tested, and the “PBM E-score” value was 0.159. In the case of AGAAGCGG, the “PBM E-score” value is reported as -0.127. For CCGTGGGC, the “PBM E-score” value was -0.187. With AGCCAGTC the “PBM E-score” value was -0.182. CTACCAGC was tested, and the “PBM E-score” value was -0.0681. For ATGACGAA, the “PBM E-score” value was 0.187. ACTCGGAC was tested, and the “PBM E-score” value was -0.0214. CAGAGGGC was tested, and the “PBM E-score” value was -0.14. With ACTACAGG the “PBM E-score” value was 0.0972. With GCACGACA the “PBM E-score” value was -0.109. TCGAGAGA was tested, and the “PBM E-score” value was -0.098. In the case of AAAAGTCG, the “PBM E-score” value is reported as 0.0461. With ACGGAATC the “PBM E-score” value was 0.13. For GATTCTAC, the “PBM E-score” value was 0.0577. In the case of GTGATTAA, the “PBM E-score” value is reported as 0.23. With CAATCTCA the “PBM E-score” value was 0.0273. In the case of AAACCAGT, the “PBM E-score” value is reported as -0.102. CGGCCGCA was tested, and the “PBM E-score” value was -0.143. For AACTCCAT, the “PBM E-score” value was 0.0158. In the case of AAACGCGT, the “PBM E-score” value is reported as -0.0191. In the case of GCGGTTCC, the “PBM E-score” value is reported as -0.0768. With GCAGCCAC the “PBM E-score” value was -0.103. With ACCCTGTG the “PBM E-score” value was -0.0365. CCCGGTTA was tested, and the “PBM E-score” value was -0.276. In the case of ATACTCCA, the “PBM E-score” value is reported as 0.122. With CGAACTCA the “PBM E-score” value was -0.0904. With AGTTTGCG the “PBM E-score” value was 0.0575. With AATATTTC the “PBM E-score” value was 0.18. In the case of TAGGAGCA, the “PBM E-score” value is reported as -0.227. In the case of CTGCCCTA, the “PBM E-score” value is reported as -0.0663. For AAGAATGG, the “PBM E-score” value was 0.00852. In the case of CGATCGTA, the “PBM E-score” value is reported as 0.0611. With GATGTCGA the “PBM E-score” value was -0.035. For CTAAGCCC, the “PBM E-score” value was -0.0799. With AAGGTAAT the “PBM E-score” value was 0.174. For CTACCTAG, the “PBM E-score” value was -0.119. In the case of CGAGGGAC, the “PBM E-score” value is reported as -0.353. AACTGGCG was tested, and the “PBM E-score” value was 0.082. With CTACAAGC the “PBM E-score” value was -0.131. In the case of CTCGTTCC, the “PBM E-score” value is reported as -0.0186. GGTAGCGA was tested, and the “PBM E-score” value was -0.0308. ACAAAATG was tested, and the “PBM E-score” value was 0.187. ATACGCTG was tested, and the “PBM E-score” value was 0.0129. ATTCTATA was tested, and the “PBM E-score” value was 0.116. TCCTATCA was tested, and the “PBM E-score” value was -0.0125. CATGGGCG was tested, and the “PBM E-score” value was -0.0472. With GGACGAGA the “PBM E-score” value was -0.0139. With CTAAGGTC the “PBM E-score” value was 0.0393. In the case of GCCTGAGA, the “PBM E-score” value is reported as -0.171. For AAGAACTC, the “PBM E-score” value was 0.026. In the case of GCAAGCAC, the “PBM E-score” value is reported as -0.204. For TATACACA, the “PBM E-score” value was 0.118. For ATGTCATG, the “PBM E-score” value was 0.0742. With CGAGACCA the “PBM E-score” value was 0.0615. For CGTCACAA, the “PBM E-score” value was -0.0941. GATACCGC was tested, and the “PBM E-score” value was 0.0689. For ATCATGTA, the “PBM E-score” value was 0.0588. In the case of ATTCGTAA, the “PBM E-score” value is reported as 0.304. For CAGTTAGA, the “PBM E-score” value was 0.0421. ATGATCGC was tested, and the “PBM E-score” value was 0.0101. CCCCTCTC was tested, and the “PBM E-score” value was -0.318. In the case of AGCGGGAA, the “PBM E-score” value is reported as 0.0493. ATGACACA was tested, and the “PBM E-score” value was 0.115. AATTGATA was tested, and the “PBM E-score” value was 0.23. In the case of CTTCCTCA, the “PBM E-score” value is reported as 0.0942. For AGATCCTG, the “PBM E-score” value was -0.197. CAGTACCA was tested, and the “PBM E-score” value was -0.0542. In the case of GTTACGCA, the “PBM E-score” value is reported as -0.0348. For CCGCATCA, the “PBM E-score” value was -0.0882. In the case of CAGTGGAA, the “PBM E-score” value is reported as -0.124. CCTTAACC was tested, and the “PBM E-score” value was -0.22.
